Laboratory results: paper doi:10.1101/2020.02.11.944470
These are yes or no findings as the source states them, for the method shown. Binding seen in cells or lysates may run through a third protein. These calls come from enrichment with a bait or labelling near it, and not all partners need be listed.

B1: Hmgb2 (protein, UniProt P30681 1-210)
chain: MGKGDPNKPRGKMSSYAFFVQTCREEHKKKHPDSSVNFAEFSKKCSERWKTMSAKEKSKFEDLAKSDKARYDREMKNYVPPKGDKKGKKKDPNAPKRPPSAFFLFCSENRPKIKIEHPGLSIGDTAKKLGEMWSEQSAKDKQPYEQKAAKLKEKYEKDIAAYRAKGKSEAGKKGPGRPTGSKKKNEPEDEEEEEEEEEEEDDEEEEEDEE
B2: Hmgb3 (protein, UniProt O54879 1-200)
chain: MAKGDPKKPKGKMSAYAFFVQTCREEHKKKNPEVPVNFAEFSKKCSERWKTMSSKEKSKFDEMAKADKVRYDREMKDYGPAKGGKKKKDPNAPKRPPSGFFLFCSEFRPKIKSTNPGISIGDVAKKLGEMWNNLSDNEKQPYVTKAAKLKEKYEKDVADYKSKGKFDGAKGPAKVARKKVEEEEEEEEEEEEEEEEEEDE

Target: BirA*-Casz1v2 (mouse)
Assay: proximity labelling

Binder	binding
B1	binds
B2	binds
